# According to the supplement of paper PMC10727501:
# The other results are listed elsewhere or left out. Single values are uncertain here, since repeats match poorly.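 Free-swimming zebrafish larvae were assessed for O-bend response probability to dark flashes (naive: first five; training: remaining flashes across four 60-flash blocks; test: later 60-flash block) and for OMR turning toward alternating leftward/rightward LED motion. Six treated larvae were compared against sixty 0.1% DMSO controls; hits required |SSMD|≥2.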
# Experiments:
# Settings in all cases: 10 µM; pre-incubation: 30-90 min
# [1] = test system: Danio rerio larvae (5 dpf, TLF); assay: OMR-Perf (SSMD vs DMSO vehicle); higher = higher than vehicle (e.g. higher dark-flash O-bend response probability, or better optomotor performance)
# [2] = test system: Danio rerio larvae (5 dpf, TLF); assay: Prob-Test (SSMD vs DMSO vehicle); higher = higher than vehicle (e.g. higher dark-flash O-bend response probability, or better optomotor performance)
# [3] = test system: Danio rerio larvae (5 dpf, TLF); assay: Prob-Naive (SSMD vs DMSO vehicle); higher = higher than vehicle (e.g. higher dark-flash O-bend response probability, or better optomotor performance)
# [4] = test system: Danio rerio larvae (5 dpf, TLF); assay: Prob-Train (SSMD vs DMSO vehicle); higher = higher than vehicle (e.g. higher dark-flash O-bend response probability, or better optomotor performance)
SMILES,OMR-Perf [1],Prob-Test [2],Prob-Naive [3],Prob-Train [4]
COc1cccc(Nc2c(C(N)=O)cnc3c(C)cc(S(=O)(=O)c4cccc(C(=O)N(C)C)c4)cc23)c1,-0.414,-0.577,-0.093,-1.53
O=C(O)c1cc(/N=N/c2ccc(S(=O)(=O)Nc3ccccn3)cc2)ccc1O [Sulfasalazine],0.54,0.354,0.26,0.471
O=C([C@@H](Cc1cccc(C(F)(F)F)c1)NS(=O)(=O)c1cc(F)c2c(c1)CCNC2)N1CCCC1,0.0775,-0.395,0,0.0784
CCc1cc(C(N)=S)ccn1 [Ethionamide],-0.4,0.493,0.0311,0.414
CC(C)C[C@@H](C(=O)N[C@H](C(=O)OC1CCCC1)c1ccccc1)[C@H](O)C(=O)NO [Tosedostat (CHR2797)],-0.0257,-0.00405,-0.235,-0.479
Nc1ccc(S(N)(=O)=O)cc1 [Sulfanilamide],0.0191,1.05,0.549,0.794
Cl.c1ccc2c(c1)CCCC2C1=NCCN1 (configuration not stated) [Tetrahydrozoline HCl],-0.112,-0.147,-0.323,-0.177
CNC(=O)c1nn(C)c2c1C(C)(C)Cc1cnc(Nc3ccc(N4CCN(C)CC4)cc3)nc1-2,-0.479,-0.379,-0.0697,-0.171
Nc1ccc(O)c(C(=O)O)c1 [Mesalamine],-0.315,-0.0518,0.454,-0.0793
CCN1CCN(Cc2ccc(-c3cc4c(N[C@H](C)c5ccccc5)ncnc4[nH]3)cc2)CC1,-0.182,-0.0468,-0.0535,-0.36
CC(C)(O/N=C(\C(=O)N[C@@H]1C(=O)N2C(C(=O)[O-])=C(C[n+]3ccccc3)CS[C@H]12)c1csc(N)n1)C(=O)O [Ceftazidime Pentahydrate],-0.153,0.0642,0.457,0.304
Nc1ncn([C@H]2C[C@H](O)[C@@H](CO)O2)c(=O)n1 [Decitabine],-0.259,-0.112,0.0243,0.195
CN(C)C(=O)c1cc2cnc(Nc3ccc(N4CCNCC4)cn3)nc2n1C1CCCC1,-0.234,-0.196,0.515,-0.0494
CCCN[C@H]1CCc2nc(N)sc2C1 [Pramipexole],0.539,0.572,0.486,0.41
CC(C)N(CC[C@H](c1ccccc1)c1cc(CO)ccc1O)C(C)C,-0.226,-0.39,-0.226,-0.269
CC(C)CN(C[C@@H](O)[C@H](Cc1ccccc1)NC(=O)O[C@H]1CO[C@H]2OCC[C@H]21)S(=O)(=O)c1ccc(N)cc1.CCO [Darunavir Ethanolate],-0.29,0.0216,0.0934,0.0944
CC1(C)[C@@H](C(=O)O)N2C(=O)C[C@H]2S1(=O)=O [Sulbactam],-0.355,-0.0276,-0.308,0.361
CC(C)(C)NC(=O)[C@@H]1CC[C@H]2[C@@H]3CC[C@H]4NC(=O)C=C[C@]4(C)[C@@H]3CC[C@]12C [Finasteride],0.399,0.313,-0.319,0.5
CCn1c2ccccc2c2cc(Nc3ccnc(NCCCN4CCOCC4)n3)ccc21,-0.355,-0.898,-0.646,-0.414
CC(C)c1cc(C(C)C)c(CC(=O)NS(=O)(=O)Oc2c(C(C)C)cccc2C(C)C)c(C(C)C)c1 [Avasimibe],0.0506,0.47,-0.252,-0.501
CN(C)CCN(Cc1cccs1)c1ccccn1.Cl [Methapyrilene HCl],-0.418,0.286,-0.154,0.28
CN1CCN(C2CCN(C(=O)Nc3cc(Oc4ccc(NC(=O)C5(C(=O)Nc6ccc(F)cc6)CC5)c(F)c4)ccn3)CC2)CC1 [Golvatinib (E7050)],0.121,0.0399,0.319,0.12
COc1cc2ncnc(Nc3ccc(O)c(Br)c3)c2cc1OC,-0.0159,-0.496,0.319,-0.372
C=CC[N+]1([C@H]2C[C@H]3[C@@H]4CC[C@H]5C[C@H](O)[C@@H](N6CCOCC6)C[C@]5(C)[C@@H]4CC[C@]3(C)[C@@H]2OC(C)=O)CCCC1.[Br-] [Rocuronium Bromide],0.463,0.436,0.357,-0.428
COc1cc2c(cc1OC)-c1cc3ccc(OC)c(OC)c3c[n+]1CC2.[Cl-] [Palmatine chloride],-0.411,0.385,0.208,0.391
C=C1/C(=C\C=C2\CCC[C@]3(C)[C@@H]([C@H](C)CCCC(C)C)CC[C@@H]23)C[C@@H](O)C[C@@H]1O [Alfacalcidol],-0.942,-0.791,-0.321,-0.403
NC(=O)c1ncn([C@@H]2O[C@H](CO)[C@@H](O)[C@@H]2O)c1O [Mizoribine],0.0271,-0.0911,0.511,-0.429

SMILES,OMR-Perf [1],Prob-Test [2],Prob-Naive [3],Prob-Train [4]
Cl.O=C(O)/C=C/c1ccc(Cn2ccnc2)cc1 [Ozagrel HCl],-0.373,0.403,-0.177,-0.0854
CCN(CC)CCNC(C(=O)OCCC(C)C)c1ccccc1.Cl.Cl (configuration not stated) [Camylofin Chlorhydrate],0.737,1.31,0.0311,0.203
CCOC(=O)c1c(CSc2ccccc2)n(C)c2cc(Br)c(O)c(CN(C)C)c12.Cl [Arbidol HCl],-0.806,-1.42,0,-0.513
CC(=O)[C@@H]1CC[C@H]2[C@@H]3C=CC4=CC(=O)CC[C@@]4(C)[C@H]3CC[C@]12C [Dydrogesterone],-0.584,-1.31,-0.482,-1.08
CNS(=O)(=O)CCc1ccc2[nH]cc(C3CCN(C)CC3)c2c1.Cl [Naratriptan],-0.132,0.253,0.126,0.11
Cc1cccn2c(=O)c(-c3nnn[n-]3)cnc12.[K+],0.0224,0.0662,-0.389,-0.315
CCOC(=O)[C@H](CCc1ccccc1)N[C@H]1CCCN2CCC[C@H](C(=O)O)N2C1=O.O [Cilazapril Monohydrate],0.221,-0.0153,0.338,0.0902
NC(=O)c1cccc(-c2cc(Nc3ccc(OC(F)(F)F)cc3)ncn2)c1,0.32,-0.346,0.0457,-0.272
Cl.NC(CO)C(=O)NNCc1ccc(O)c(O)c1O (configuration not stated) [Benserazide HCl],0.103,-0.000764,-0.226,-0.0263
CCCCOc1cc(C(=O)NCCN(CC)CC)c2ccccc2n1.Cl [Dibucaine HCl],-0.894,-0.993,0.232,0.0323
CC(C)NCC(O)COc1cccc2[nH]ccc12 (configuration not stated) [Pindolol],-0.138,0.149,0.444,0.21
CNCc1cc(-c2ccccc2F)n(S(=O)(=O)c2cccnc2)c1.O=C(O)/C=C/C(=O)O,-0.365,-0.232,-0.117,0.006
CC(=O)N1c2ccc(-c3ccc(C(=O)O)cc3)cc2[C@H](Nc2ccc(Cl)cc2)C[C@@H]1C,0.0683,-0.0551,-0.355,-0.394
COc1cccc(-c2cc(=O)c3ccccc3o2)c1N,-0.491,-1.13,-0.297,-0.837
Cc1ccc2c(Cl)cc(Cl)c(O)c2n1 [Chlorquinaldol],-0.343,-0.77,-4.55,-1.51
CCn1cc(-c2ccnc3[nH]c(-c4cccc(CN(C)C)c4)cc23)c(-c2ccc(NC(=O)N(C)C)cc2)n1,-0.716,-0.126,0.289,-0.387
O=C(N[C@H](CO)[C@H](O)c1ccc([N+](=O)[O-])cc1)C(Cl)Cl [Chloramphenicol],1.15,0.562,0.255,1.04
C=CC1=C(C(=O)O)N2C(=O)[C@@H](NC(=O)/C(=N\O)c3csc(N)n3)[C@H]2SC1 [Cefdinir],-0.268,-0.153,0.292,0.113
O=C(Nc1ncc(SCCN2CCCC2)s1)[C@]1(c2ccc(S(=O)(=O)C3CC3)cc2)C[C@@H]1C1CCCCC1,-0.592,-0.68,0.302,-0.88
COc1c(C)c(C(=O)c2ccc(N)c(C(=O)[O][Na])c2)n2ccccc12,-0.112,0.171,0.145,0.142
C=CCNC(N)=S [Allylthiourea],0.508,-0.255,0.118,0.0528
CC(C)C(=O)Nc1ccc([N+](=O)[O-])c(C(F)(F)F)c1 [Flutamide],-0.698,-1.64,-1.6,-2.83
C[C@@H]1O[C@@H](O[C@@H]2[C@H](Oc3cc(O)c4c(c3)O[C@H](c3ccc(O)cc3)CC4=O)O[C@H](CO)[C@@H](O)[C@@H]2O)[C@@H](O)[C@H](O)[C@H]1O [Naringin],-0.629,0.0565,0.208,-0.392
CN1CCc2c(c3ccccc3n2Cc2ccc(C(=O)NO)cc2)C1 [Tubastatin A],0.374,-0.135,0.587,-0.0929
Cc1c(OCC(F)(F)F)ccnc1CS(=O)c1nc2ccccc2[nH]1 (configuration not stated) [Lansoprazole],-0.503,-0.313,-0.414,0.178
OC[C@H]1O[C@@H](c2ccc(Cl)c(Cc3ccc(O[C@H]4CCOC4)cc3)c2)[C@H](O)[C@@H](O)[C@@H]1O,0.151,-0.0284,0.42,0.199

# 3 structures from above, arranged by number of heavy atoms, largest number first.
SMILES,OMR-Perf [1],Prob-Test [2],Prob-Naive [3],Prob-Train [4]
CCn1cc(-c2ccnc3[nH]c(-c4cccc(CN(C)C)c4)cc23)c(-c2ccc(NC(=O)N(C)C)cc2)n1,-0.716,-0.126,0.289,-0.387
Cc1c(OCC(F)(F)F)ccnc1CS(=O)c1nc2ccccc2[nH]1 (configuration not stated) [Lansoprazole],-0.503,-0.313,-0.414,0.178
Cc1ccc2c(Cl)cc(Cl)c(O)c2n1 [Chlorquinaldol],-0.343,-0.77,-4.55,-1.51
